Experimental data from paper PMC10163288.
This is one part of the list.

B1: il2ra_site2_2erj_sap_20_mot_HHH_b1_05785_af2_000000218_0001_1_18_H_._ems_3hM_3566_0001_0000700017_0000001_0_0001 (protein)
chain: SSSSDEELRRLYELANELMRLLSEGDEEEFEKVLEEAKELAHRRNSENAEEVLEWLEKALSSSSS
B2: il2ra_site1_2b5i_normal_mot_0e5a94e4a5addaac739760efb25f0f5d_0001_000000289_0001_18_32_H_._ems_p1-16H-GBL-16H-GABBL-16H_0048_0001_0001_0001_0001_0000300027_0000 … (protein)
chain: SSSSSKAEKLATEVYDIASAKGDKEALKEAIRILYDYQTGRLSEEEAVERLTKLKERVLESSSSS
B3: il2ra_site1_2b5i_normal_mot_7f4edd48de514878b8c7c0e8b1dada65_0001_af2_000000251_0001_36_50_H_._HHH_b2_03947_0001_0000100001_0000001_1_af2pred_dldesign_0_af2pred (protein)
chain: SSSSSSSAKEKVEELLEKAKTLKDEFELNKTLFEAYIVARKAKDEEMLKKIEKLWNELSSSSSSS
B4: il2ra_site2_2erj_normal_mot_HHH_b2_06005_000000006_0001_1_15_H_._HHH_b2_07199_0001_0000100003_0000001_0 (protein)
chain: SSSSSDEERVEQLLEEVEELLRRGNPEEAFAVLAEAVEVAVRAQNEELLRLIREVFEEVYNSSSS
B5: il2ra_site1_2b5i_sap_8_mot_22370d59370c406a0c205a431f537cfa_0001_af2_000000141_0001_1_31_H_._HHH_b2_02941_af2_0001_0000100002_0000001_0_0001_af2pred_0001_af2pre … (protein)
chain: SSSSDKELAEELVEALLEEAKHIEDEKRALAIVSLAIAVARAGRDEELRELAEEVLEELRSSSSS
B6: il2ra_site1_1z92_sap_12_mot_HHH_b2_00969_af2_000000010_0001_43_57_H_._143a287d0b402db772f1b684e0b208e7_0001_0001_0000400040_0000001_0_0001 (protein)
chain: SSSSDLKRSAEIVVRMAVEVAGLSEEQKEELERVAEEALERGLDFLEILKLLDKVARELDSSSSS
B7: il2ra_site2_2erj_normal_mot_HHH_b1_05402_000000256_0001_22_39_H_._HHH_b1_03332_0001_0000700044_0000001_0 (protein)
chain: SSSSDLEEEIRELLEELERAIREGDKELVRKLQERISQLIYELGDEELFSELAELAIAIYTSSSS
B8: il2ra_site1_1z92_normal_mot_3cad0fa5fd511b0551b272d6504d3e9d_0001_1_000000015_0001_37_51_H_._9024fc7fac297d0408f6c2d12835a220_0001_1_0002_0000200029_0000001_0 (protein)
chain: DLEELLEEAEERGDVELVTVLRFLLRLAENLDVPPEEAIKALKRAAKQMGNPRLEELVKKVEELH
B9: il2ra_site1_2b5i_normal_mot_ems_3hM_2197_000000181_0001_1_19_H_._HHH_b1_08418_af2_0001_0000200030_0000001_0 (protein)
chain: SSSSSEEVEKAEELAEEVLELLKELGDEYLFEFVRRRLEALRERQDPRAAKSLIRAAAAYSSSSS
B10: il2ra_site2_3nfp_normal_mot_HHH_b2_04451_000000238_0001_21_37_H_._HHH_b1_04560_af2_0001_0000800047_0000001_0 (protein)
chain: SSSSDEEEEKIKELIKEAEELLEEGDPYEALEVLAEASQLAARLGNDELARRILELFEKVQSSSS
B11: il2ra_site2_3nfp_sap_26_mot_HHH_b2_05313_af2_000000119_0001_39_56_H_._254fc17bb08746de5dae9ef87d53b160_0001_0001_0000100003_0000001_0_0001 (protein)
chain: SSSSLEEEVEELLREARELLEEGDKFQAAHLVLRASELAAKNNNEELARKILELFEEIQRRSSSS
B12: il2ra_site1_3nfp_sap_20_mot_HHH_b2_06507_000000196_0001_21_38_H_._HHH_b1_07336_0001_0000300011_0000001_0_0001 (protein)
chain: SSSSSKEEVHELAQRVLRLAFEGDEEEAKELLREAEELAEELGDESSKRFLELLKRDIERWSSSS
B13: il2ra_site2_2erj_normal_mot_64bd02d26d05ce9f1a62b616cea0b888_0001_af2_000000029_0001_36_49_H_._HHH_b2_05536_af2_0001_0000800038_0000001_0 (protein)
chain: SSSSDERLERLYKLLVRLLRLAANGDEEEFEKLAEELQELAEELQSNSVEEVVESLKRLLSSSSS
B14: il2ra_site1_2b5i_normal_mot_HHH_b2_06044_000000134_0001_1_20_H_._HHH_b1_06937_af2_0001_0000100002_0000001_0_af2pred_dldesign_0_af2pred (protein)
chain: SSSSDEKEDEVYDLFNEALELKKQGKKEEAKELLEKAIEVAEAAGLEKAVEELRYFLEKLSSSSS
B15: il2ra_site2_3nfp_sap_26_mot_HHH_b1_07277_000000260_0001_23_39_H_._HHH_eva_0486_af2_0001_0000400016_0000001_0_0001 (protein)
chain: SAELARRIVELVRRGDPVAEALFALLADVAYKGDPELERLLEEALEALERGNPEEAEEIVRKALK
B16: il2ra_site1_2b5i_sap_10_mot_HHH_b2_04274_000000042_0001_1_19_H_._HHH_b2_02970_0001_0000300034_0000001_0_0001_af2pred_dldesign_0_af2pred (protein)
chain: SPKRALFEVLDEIVKKDPRFEDAVQEVMRLLSRGDPRLAARAQELIDALEEVDPEAAARLRAALE
B17: il2ra_site1_3nfp_normal_mot_HHH_b1_04372_000000168_0001_18_32_H_._2e98e7bbb80d485e9cb659e66a2d41f2_0001_af2_0001_0000300019_0000001_1 (protein)
chain: DNREFVIELLKKDPENEDIAEALKELLELAEKGDQEAFKLFRELNQLLAQGDPEEAKRLAEEVLK
B18: il2ra_site1_3nfp_normal_mot_b29dd7dff93b1ac3f1fd774082f773f6_0001_000000159_0001_35_51_H_._HEEHE_0493_0001_0000300038_0000001_1_af2pred_0001_af2pred_1 (protein)
chain: DREELVAEAIEEIAEIAGVPSVSVSVENGTLRVEFEGNDFRVEAARRIAERMVKANNVEIEIEVR
B19: il2ra_site2_2erj_sap_19_mot_66c2fca85847babee3b8944584cfd08f_0001_1_000000223_0001_16_30_H_._c264f418a867ce4938133f27b88868c4_0001_af2_0001_0001200048_0000001_0 … (protein)
chain: SSSSSDEEELEERVRRLLEEAEKIEDIEEALRLLQEADQLAVEADDPELLEEVDRVARRLSSSSS

These binders were tested against il2ra, P01589 (assay: yeast display titration).

Apparent Kd, inactive:
B1 no binding seen
B2 no binding seen
B3 no binding seen
B4 no binding seen
B5 no binding seen
B6 no binding seen
B7 no binding seen
B8 no binding seen
B9 no binding seen
B10 no binding seen
B11 no binding seen
B12 no binding seen
B13 no binding seen
B14 no binding seen
B15 no binding seen
B16 no binding seen
B17 no binding seen
B18 no binding seen
B19 > 455 nM

Reprinted at random: two records from the list
Apparent Kd, inactive:
B15 no binding seen
B13 no binding seen
